Reference: patent US10246497 (dated 2019)

Experiment: general procedure: Fmoc solid-phase peptide synthesis; Tentagel RAM (Rapp Polymere) or Rink amide ChemMatrix; DIC / Oxyma Pure in NMP; PyBOP/DIPEA for 16-sulfonic hexadecanoic acid
Conditions: whole synthesis, UPLC-AP-01, scale of the general procedure 0.25 mmol or 0.4 mmol

## [Trp30]hPYY(3-36)
  final HPLC purity: 96.6%
